# Assay results from PubChem BioAssay (EPA / NIEHS).
# Several values for one entry are separate records, joined by “and”; a condition that tells them apart may be missing. Equal entries are not always repeated. Inconclusive results, whose numbers are uncertain, are shown with a selection of clear calls. For some of these results: Where the call is inconclusive, the potency comes from a doubtful curve fit. Activity calls are given as the source filed them. Rule for the calls: active = hit-call score of the fitted dose curve at least 0.9, where 1 is the maximum; inconclusive = response in the unintended direction; inactive = score below 0.9.
# Tests used:
# [1] = ACEA_AR_agonist_AUC_viability: ACEA Biosciences xCELLigence Real-Time Cell Analysis on Androgen Receptor Agonism for Viability (AID 2283775);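 for AC50: viability read 80 hours after compound addition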
# How it was run: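 Read-out is area under the impedance curve at 80 h post-dose in 22Rv1 cells, with DMSO as baseline and signal loss taken as reduced viability. Compounds ran in duplicate from 100 uM final.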
# [2] = ACEA_AR_antagonist_AUC_viability: ACEA Biosciences xCELLigence Real-Time Cell Analysis on Androgen Receptor Antagonism for Viability (AID 2283776);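 note: 22Rv1 human prostate cancer cells growing on impedance electrode plates; area under impedance growth curve at 80 h after dosing as viability; hits lower the growth signal relative to DMSO meaning cytotoxicity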
# How it was run: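 22Rv1 prostate cells, continuous dosing up to 100 uM final (0.5% DMSO max), duplicate plates. Growth measured by impedance; AUC at 80 h, loss of signal vs DMSO.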
# [3] = ACEA_ER_AUC_viability: ACEA Biosciences xCELLigence Real-Time Cell Analysis on Estrogen Receptor Agonism for Viability (AID 2283782);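 note: continuous compound exposure with impedance area under curve over 80 h; hit means loss of impedance signal meaning reduced cell growth or viability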
# How it was run: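 T47D cells preconditioned in phenol red-free RPMI with charcoal-stripped FBS, then dosed with 8-point 1:4 series from 100 uM (up to 0.5% DMSO). Impedance monitored up to ~80 h; area-under-curve loss versus DMSO taken as viability.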
# [4] = system: zebrafish Estrogen Receptor (ESR2A), gene 317734; test: ATG_zfER2a_XSP1: Attagene TRANS-FACTORIAL Multi-Species (XSP1) HepG2 Assay for zebrafish Estrogen Receptor (ESR2A) (AID 2283778)
# How it was run: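 HepG2 cells transiently transfected with GAL4-UAS reporter units driven by a zebrafish ESR2A–Gal4 chimera; 24 h compound exposure with 3 nM 6-alpha-fluorotestosterone present. Reporter mRNA measured by RT-PCR with fluorescent capillary electrophoresis, fitted positive versus DMSO.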
compound,measurement,setting,value
O=C(O)CF,outcome,[1],inactive
C[C@]12CCC(=O)C=C1CC[C@@H]1[C@@H]2CC[C@@]2(C)[C@H]1CC[C@]2(C)O,AC50,[1],inconclusive: 0.000596 µM
same,AC50,[2],inconclusive: 0.00305 µM
same,AC50,[3],inconclusive: 109 nM and inconclusive: 129 nM and inconclusive: 3.04 µM
CCOP(=O)(OCC)Oc1nc(Cl)c(Cl)cc1Cl,AC50,[1],active: 72.4 µM
CCOc1ccc(N)cc1,AC50,[1],inconclusive: 0.136 µM
same,AC50,[2],inconclusive: 0.842 µM
CCN(CC)C(=O)SCc1ccc(Cl)cc1,AC50,[1],active: 62.2 µM
O=C(O)COc1nc(Cl)c(Cl)cc1Cl,AC50,[1],inconclusive: 2.68 µM
same,AC50,[2],inconclusive: 0.0563 µM
same,AC50,[3],inconclusive: 0.0475 µM
CC(C)(C)C(O)(CCc1ccc(Cl)cc1)Cn1cncn1 (configuration not stated),AC50,[1],active: 87 µM
CN(C)c1nc(=O)n(C2CCCCC2)c(=O)n1C,outcome,[1],inactive
CCCCCCCCCc1ccc(O)cc1,AC50,[1],active: 22.9 µM
same,AC50,[2],active: 19.1 µM
O=C(O)C1(c2ccc3c(c2)OC[C@H](Cc2ccc(-c4ccccc4)cc2)[C@H]3O)CCCC1,AC50,[1],active: 34.6 µM
OCCOc1ccccc1,AC50,[1],inconclusive: 0.78 µM
COC(=O)c1ccccc1C(=O)OC,AC50,[1],inconclusive: 50 µM
Oc1ccc2ccc3cccc4ccc1c2c34,AC50,[1],active: 83.3 µM
CC(C)(c1ccccc1)c1ccc(O)c(C(C)(C)c2ccccc2)c1,AC50,[1],active: 10.1 µM
O=[N+]([O-])c1ccc(Oc2ccc(Cl)cc2Cl)cc1,AC50,[1],active: 84.9 µM
same,AC50,[2],active: 31.2 µM
same,AC50,[3],inconclusive: 4.14 µM
Cl/C=C/Cl,outcome,[1],inactive
same,outcome,[2],inactive
same,AC50,[3],inconclusive: 50 µM
CC(C)(C)OOC(C)(C)C,AC50,[1],inconclusive: 0.0022 µM
same,AC50,[2],inconclusive: 10.1 µM
C[C@]12CCC(=O)C=C1CC[C@@H]1[C@@H]2CC[C@]2(C)C(=O)CC[C@@H]12,AC50,[1],inconclusive: 0.0101 µM
same,AC50,[2],inconclusive: 0.00044 µM
same,AC50,[3],inconclusive: 50 µM and inconclusive: 9.92 µM
O=[N+]([O-])c1c(Cl)c(Cl)c(Cl)c(Cl)c1Cl,AC50,[1],active: 58.6 µM
same,AC50,[2],active: 50 µM
same,AC50,[3],active: 72.3 µM
CC1(C)C(C(=O)OC(C#N)c2cccc(Oc3ccccc3)c2)C1(C)C (configuration not stated),AC50,[1],active: 50 µM
COP(=S)(OC)Oc1ccc([N+](=O)[O-])cc1,AC50,[1],inconclusive: 50 µM
same,outcome,[2],inactive
same,outcome,[3],inactive
Clc1ccccc1-c1nnc(-c2ccccc2Cl)nn1,AC50,[1],inconclusive: 9.22 µM
same,AC50,[2],inconclusive: 3.21 µM
same,outcome,[3],inactive
CCOc1cc(C=O)ccc1O,AC50,[1],inconclusive: 7.98 µM
same,AC50,[2],inconclusive: 0.455 µM
COc1nc(NC(C)C)nc(NC(C)C)n1,AC50,[1],inconclusive: 50 µM
same,AC50,[2],inconclusive: 3.9 µM
same,AC50,[3],inconclusive: 0.0449 µM
CC(C)=CC1C(C(=O)OCc2cccc(Oc3ccccc3)c2)C1(C)C (configuration not stated),AC50,[1],inconclusive: 0.285 µM
O=S1(=O)OC(c2cc(Br)c(O)c(Br)c2)(c2cc(Br)c(O)c(Br)c2)c2ccccc21,AC50,[1],inconclusive: 7.43 µM
COc1nn(C(=O)NS(=O)(=O)c2ccccc2OC(F)(F)F)c(=O)n1C,outcome,[1],inactive
same,outcome,[2],inactive
O=C(O)C(Cl)(Cl)Cl,AC50,[1],inconclusive: 10.7 µM
c1ccc2c(c1)-c1cccc3cccc-2c13,AC50,[1],inconclusive: 50 µM
CCSC(=O)N(CC)C1CCCCC1,AC50,[1],inconclusive: 50 µM
Oc1c(Br)cc(Br)cc1Br,AC50,[1],inconclusive: 0.176 µM
COC(=O)c1sccc1S(=O)(=O)NC(=O)Nc1nc(C)nc(OC)n1,AC50,[1],inconclusive: 29.9 µM
c1ccc(P(c2ccccc2)c2ccccc2)cc1,AC50,[1],inconclusive: 0.0358 µM
CC#Cc1cc(C)nc(Nc2ccccc2)n1,AC50,[1],inconclusive: 12 µM
same,AC50,[2],inconclusive: 0.00061 µM
same,AC50,[3],inconclusive: 50 µM
O=c1[nH]c(=O)[nH]c(=O)[nH]1,outcome,[1],inactive
same,outcome,[2],inactive
CNC(=O)N(C)c1nnc(C(C)(C)C)s1,outcome,[1],inactive
O=CCCl,AC50,[1],inconclusive: 3.3 µM
C[C@]12CCC(=O)C[C@@H]1CC[C@@H]1[C@@H]2CC[C@]2(C)[C@@H](O)CC[C@@H]12,AC50,[1],inconclusive: 0.000221 µM
same,AC50,[2],inconclusive: 0.00259 µM
same,AC50,[4],active: 0.851 µM
same,AC50,[3],inconclusive: 108 nM and inconclusive: 179 nM and inconclusive: 160 nM

# Part of the list above, with bars between the fields:
compound | measurement | setting | value
CN(C)c1nc(=O)n(C2CCCCC2)c(=O)n1C | outcome | [1] | inactive
CCCCCCCCCc1ccc(O)cc1 | AC50 | [1] | active: 22.9 µM
